Percent effect of library compounds

Sequences of proteins named here, by UniProt entry; tags and fusion partners are left off. Residues count along the entry.
UniProt P9WFT3, whole entry: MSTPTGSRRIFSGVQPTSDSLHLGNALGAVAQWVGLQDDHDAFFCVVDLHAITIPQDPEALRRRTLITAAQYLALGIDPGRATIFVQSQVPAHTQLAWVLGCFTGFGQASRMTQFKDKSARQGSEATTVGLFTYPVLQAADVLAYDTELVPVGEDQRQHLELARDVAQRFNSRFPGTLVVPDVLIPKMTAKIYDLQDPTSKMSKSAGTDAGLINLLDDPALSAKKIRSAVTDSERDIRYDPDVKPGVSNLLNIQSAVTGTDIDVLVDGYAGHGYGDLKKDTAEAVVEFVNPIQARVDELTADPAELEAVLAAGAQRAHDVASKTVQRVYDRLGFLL
UniProt Q8IDJ8, 1-583: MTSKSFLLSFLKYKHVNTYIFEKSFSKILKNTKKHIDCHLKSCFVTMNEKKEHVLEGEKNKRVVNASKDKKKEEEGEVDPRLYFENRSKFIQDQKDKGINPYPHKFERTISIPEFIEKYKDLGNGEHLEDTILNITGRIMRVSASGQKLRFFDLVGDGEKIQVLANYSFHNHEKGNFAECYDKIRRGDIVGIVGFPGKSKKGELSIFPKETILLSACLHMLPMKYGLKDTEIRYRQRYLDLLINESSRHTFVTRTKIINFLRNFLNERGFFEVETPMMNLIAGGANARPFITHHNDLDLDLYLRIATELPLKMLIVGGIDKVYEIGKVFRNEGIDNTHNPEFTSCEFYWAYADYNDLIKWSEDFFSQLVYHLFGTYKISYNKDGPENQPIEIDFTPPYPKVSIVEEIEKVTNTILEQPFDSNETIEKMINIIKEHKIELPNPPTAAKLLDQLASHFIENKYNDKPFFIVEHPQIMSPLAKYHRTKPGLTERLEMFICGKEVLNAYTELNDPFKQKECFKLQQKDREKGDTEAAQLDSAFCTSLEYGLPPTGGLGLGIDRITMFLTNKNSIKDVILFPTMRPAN
UniProt P9WNZ1, whole entry: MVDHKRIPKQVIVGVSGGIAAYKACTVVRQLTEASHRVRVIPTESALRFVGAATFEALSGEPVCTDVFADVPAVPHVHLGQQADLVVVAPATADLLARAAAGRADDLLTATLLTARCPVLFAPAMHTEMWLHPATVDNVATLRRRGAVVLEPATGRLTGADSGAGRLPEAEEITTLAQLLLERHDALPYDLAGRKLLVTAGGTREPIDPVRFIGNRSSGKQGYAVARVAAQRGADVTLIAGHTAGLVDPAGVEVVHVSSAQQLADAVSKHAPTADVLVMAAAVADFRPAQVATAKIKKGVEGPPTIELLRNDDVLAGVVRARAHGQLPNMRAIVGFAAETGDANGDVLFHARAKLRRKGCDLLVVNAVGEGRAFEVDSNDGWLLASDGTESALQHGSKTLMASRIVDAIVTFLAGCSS
UniProt P9WPC5, whole entry: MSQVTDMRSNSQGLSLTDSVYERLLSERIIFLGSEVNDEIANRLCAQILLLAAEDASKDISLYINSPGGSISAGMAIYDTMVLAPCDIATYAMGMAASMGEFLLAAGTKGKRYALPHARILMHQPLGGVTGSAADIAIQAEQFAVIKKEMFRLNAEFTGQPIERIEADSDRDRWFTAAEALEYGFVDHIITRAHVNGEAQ
UniProt P9WPC3, whole entry partner: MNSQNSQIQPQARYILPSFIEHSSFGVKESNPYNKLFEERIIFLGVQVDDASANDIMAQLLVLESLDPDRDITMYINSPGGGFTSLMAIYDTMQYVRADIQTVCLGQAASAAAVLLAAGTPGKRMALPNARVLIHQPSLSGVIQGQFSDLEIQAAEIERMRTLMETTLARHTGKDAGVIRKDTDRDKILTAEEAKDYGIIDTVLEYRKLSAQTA
UniProt Q4DA54, 1-478: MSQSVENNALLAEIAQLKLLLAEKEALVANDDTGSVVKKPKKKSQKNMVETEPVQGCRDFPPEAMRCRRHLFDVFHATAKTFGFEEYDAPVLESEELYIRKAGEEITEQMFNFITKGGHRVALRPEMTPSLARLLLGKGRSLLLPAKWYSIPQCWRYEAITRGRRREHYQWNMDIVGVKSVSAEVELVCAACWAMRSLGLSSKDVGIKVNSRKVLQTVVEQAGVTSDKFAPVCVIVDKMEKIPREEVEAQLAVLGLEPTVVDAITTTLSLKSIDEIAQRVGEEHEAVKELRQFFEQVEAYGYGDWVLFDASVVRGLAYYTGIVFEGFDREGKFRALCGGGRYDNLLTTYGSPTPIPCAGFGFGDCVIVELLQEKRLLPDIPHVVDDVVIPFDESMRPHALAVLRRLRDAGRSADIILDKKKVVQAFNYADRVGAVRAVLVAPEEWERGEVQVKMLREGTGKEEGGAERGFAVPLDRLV

From ChEMBL document CHEMBL3988442, “University of Dundee, Small-Polar-MMV Screening Library” (2021).

MtTrpRS: 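Enzyme assay of tryptophanyl-tRNA synthetase; the read-out is not stated. Target: Tryptophan-tRNA ligase, Mycobacterium tuberculosis (UniProt P9WFT3). Tested at 10 µM. Direction is not recorded; retested compounds ran higher, which suggests that high means inhibition. Of about 65,000 compounds tested this way, about 64 (0.098%) reached 50% or more in at least one test.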
PfKRS1: 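Enzyme assay of the cytosolic lysyl-tRNA synthetase in 384-well plates, read by luminescence. Target: Lysine-tRNA ligase, Plasmodium falciparum 3D7 (UniProt Q8IDJ8). Tested at 30 µM. Direction is inferred from only a few compounds that gave an IC50; most scored high, so higher reads as stronger inhibition. Of about 69,000 compounds tested this way, about 49 (0.071%) reached 50% or more in at least one test.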
CoaBC: 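Enzyme assay of CoaBC with a phosphate dye (Biomol Green) read at 650 nm. Target: Coenzyme A biosynthesis protein CoaBC, Mycobacterium tuberculosis (UniProt P9WNZ1). Compounds at 30 µM. Direction is inferred from only a few compounds that gave an IC50; most scored high, so higher reads as stronger inhibition. Most strong results did not repeat in a second test. About 67,000 compounds were tested under these conditions; 0.06% (about 40) showed 50% or more at least once.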
ClpP1P2: 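Protease assay of ClpP1P2, read by the AMC dye that it sets free. Target: ClpP1P2, Mycobacterium tuberculosis (UniProt P9WPC5 and UniProt P9WPC3). Compounds at 50 µM. Direction is inferred from only a few compounds that gave an IC50; most scored high, so higher reads as stronger inhibition. Most other retested compounds had strongly negative values. About 69,000 compounds were tested under these conditions; 0.015% (about 10) showed 50% or more at least once.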
TcHisRS: 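Enzyme assay of histidyl-tRNA synthetase; the read-out is not stated. Target: Histidine-tRNA ligase, Trypanosoma cruzi CL Brener (UniProt Q4DA54). Compounds at 30 µM. The record gives no direction; compounds that gave an IC50 in retests scored well above the rest, so higher reads as stronger inhibition. Size under these conditions: about 69,000 compounds, about 31 of them at 50% or above in at least one test.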

The filed quantity is “Percent Effect” (%). The record does not define 0% and 100%; most values in the screen are far below 50% and negative numbers occur (in some assays of this library far below -100). Compounds were drawn at random from those tested, without regard to their results. A dash means the value is not listed here; it may have been measured.

structure	MtTrpRS	PfKRS1	CoaBC	ClpP1P2	TcHisRS
Cc1c(C(=O)N2CCCC(O)(CN(C)C)CC2)c2cc(O)ccc2n1C (stereo not given)	-2.974%	-5.51%	0%	-1.81%	1.087%
CSCC(=O)N1CCC(c2nccn2Cc2cscn2)CC1	-7.174%	-1.459%	-0.3619%	9.723%	1.508%
c1cc(CN2CCCC(c3ccnc4nccn34)C2)ccn1 (stereo not given)	-0.2604%	0.3986%	-1.196%	-34.13%	9.579%
O=C(Cc1cccs1)N1C[C@@H]2CN(Cc3ccoc3)CCO[C@@H]2C1	-0.3791%	-2.578%	5.315%	-7.471%	10.2%
CC(C)N(Cc1ccc(Cl)c(Cl)c1)C(=O)CCn1cncn1	-1.54%	-0.4593%	5.896%	-9.515%	3.093%
CC(C)(C)c1ncc(CNc2ccccc2Cn2cncn2)s1	2.058%	4.239%	2.419%	-8.55%	4.202%
O=C(NCC1(O)COCCN(Cc2cccc(O)c2)C1)c1ccccn1 (stereo not given)	-3.736%	1.148%	8.314%	-12.31%	6.154%
CC(C)=CCN1C[C@H]2CC[C@@H]1CN(C(=O)CSc1ccncc1)C2	-3.907%	6.293%	0.6211%	-6.103%	-3.865%
CCOC(C)c1nc(CN2CCNCC2)cs1 (stereo not given)	-3.328%	-6.591%	-9.168%	-11.14%	5%
Cc1nc(CNCC2COCc3c(-c4ccoc4)nnn3C2)cs1 (stereo not given)	-4.328%	1.802%	1.018%	-2.497%	3.448%
CN(C)C(=O)N1CCC2(CC1)C(=O)N(CC1CCOC1)c1ccccc12 (stereo not given)	-5.959%	1.472%	5.019%	-6.584%	2.913%
Cn1cc(C(=O)NCc2cncc3c2CCN(c2ccccn2)C3)cn1	-	-1.154%	-3.094%	-12.08%	4.523%
Cc1cccn2cc(C(=O)N3CCCN(CC4CC4)C(C(C)C)C3)nc12 (stereo not given)	-0.7508%	2.538%	5.302%	-11.64%	4.386%
COc1cc2cc3c(nc2cc1OC)OCCN(CC1CC1)C3	-4.137%	-1.053%	15.15%	-7.843%	4.887%
Cc1nccn1CC1CCCN(C(=O)Cc2ccsc2)C1 (stereo not given)	-0.153%	-1.609%	3.137%	-10.05%	6.468%
CN1CCC2(CCC1=O)CCN(C(=O)Cc1ccc(O)c(F)c1)CC2	3.095%	0.1833%	2.893%	2.369%	0.578%
CN(C)c1cc(CNC(=O)c2ccc(F)cc2F)ccn1	2.478%	2.887%	4.337%	10.87%	3.053%
COC(=O)[C@H](C)NC(=O)CSCc1nc2sc(C(C)C)cc2c(=O)[nH]1	2.333%	1.356%	3.269%	-10.32%	0%
CN1CCCC1c1cncc(C(=O)NCc2ccccc2)n1 (stereo not given)	-4.052%	-0.329%	0.3681%	-3.941%	3.101%
Cn1cnnc1C1CCCN(C(=O)c2ccc3c(c2)OCCO3)C1 (stereo not given)	-2.685%	20.25%	-3.24%	-1.386%	2.521%
Fc1ccc(-c2nnc(CN3CCCC3Cn3cncn3)o2)cc1 (stereo not given)	-3.277%	7.083%	1.205%	-2.399%	0.7634%
CSc1ccc(CNC(c2ccc(F)cc2)c2nccn2C)cc1 (stereo not given)	-1.935%	-2.361%	9.838%	-39.78%	12.54%
COCCN1C[C@@H]2[C@@H](OC)CCN(Cc3cccs3)[C@@H]2C1	1.652%	-0.7201%	1.356%	-16.05%	3.509%
CC(C)(C)c1coc([C@@H]2COCCN2Cc2csnn2)n1	-2.822%	7.381%	12.38%	-13.06%	-0.4975%
CC/C=C(\C)CN1CCC(CNC(=O)c2ccc(=O)[nH]c2)CC1	-3.43%	2.316%	-5.943%	-1.679%	5.319%
CC(C)OCCOCc1cccc(NC(=O)NCCn2ccnc2)c1	0.4143%	1.882%	6.818%	-9.803%	0%
NC(=O)N1CC[C@H](O)[C@@H]1Cc1ccccc1	-7.297%	4.218%	3.294%	-6.222%	0.4808%
O=C1CCCN1c1cccc(CNCc2nc(-c3ccco3)no2)c1	0.136%	2.765%	-2.658%	5.117%	4.878%
O=C(O)c1cc(-c2cc[nH]n2)cc(S(=O)(=O)N2CCCCCC2)c1	-6.781%	17.14%	2.564%	-11.51%	9.189%
O=C1CCCN1CCCN1CCCCC1Cn1cncn1 (stereo not given)	0.7936%	2.733%	3.846%	2.503%	1.97%
CNC(=O)c1cccc(NC(=O)NC(C)CCc2cccn2C)c1C (stereo not given)	-1.347%	-1.377%	1.333%	-18.82%	8.163%
CCCS(=O)(=O)N1CCC2(CCN(Cc3cccc(F)c3)C2=O)C1 (stereo not given)	-3.153%	-6.174%	-6.042%	-11.35%	6.14%
COCCOc1ccc(NC(=O)C2CC(=O)N(C3CC3)C2)cn1 (stereo not given)	-8.276%	0.3881%	11.18%	-17.57%	3.488%
CN1CC(=O)N(c2ccsc2)CC12CCN(Cc1cnn(C)c1)C2 (stereo not given)	2.553%	5.348%	-5.055%	-17.42%	8.772%
CCN(CC)CCNC(=O)CCc1c(C)nn(-c2ccccc2Cl)c1C	-	-2.837%	-4.612%	-11.29%	0%
COc1ccnc(N2CCC(OCCN3CCCCC3)C2)n1 (stereo not given)	-5.635%	13.96%	-7.2%	-1.919%	2.299%
COc1cc(C(=O)NS(=O)(=O)c2cccc(C#N)c2)cc(Cl)c1OC	-1.458%	0.4983%	1.012%	4.102%	-4.981%
Cc1nc(CN2CCC(NS(C)(=O)=O)CC2)co1	0.5228%	4.155%	1.229%	-10.07%	10.59%
COc1cccc(CN(C)Cc2nc3cc(C)ccc3[nH]2)c1O	6.463%	4.943%	-0.4866%	-9.52%	6.667%
CC1(C)CN=C(N2CCN(CC3CCOC3)CC2)S1 (stereo not given)	1.175%	-0.3458%	4.793%	-8.673%	9%
CNC(=O)c1c(C)cccc1NCC(=O)Nc1cc(C)nn1C	-2.233%	4.057%	5.104%	5.144%	6.863%
COc1cc(C(C)NCc2cscn2)ccc1SC(F)F (stereo not given)	-0.2349%	-2.651%	-0.2445%	12.7%	3.093%
c1coc(CN2CCC3(CC2)COC(COCC2CCOCC2)C3)c1 (stereo not given)	-1.163%	7.082%	6.049%	-3.862%	5.825%
CC(C)(C)CCN1CCC(c2nnc(Cn3cccn3)n2C2CC2)CC1	0.6365%	5.889%	3.827%	-28.71%	-1.339%
CCn1c(CN(C)C(=O)c2ccc(OC)nc2)nc2ccccc21	0.8474%	1.607%	-1.21%	-10.15%	2.521%
CN1C[C@H]2CC[C@@H]1CN(C(=O)COCc1nc3cc(F)ccc3[nH]1)C2	0.6221%	0.6664%	-5.206%	-13.94%	0.9901%
CN(C)CCN(C)c1nc(CCc2ccccc2)nc2c1cnn2C	0.9587%	2.305%	-28.1%	-9.871%	6.557%
CCC(NC1CCN(C(=O)c2ccccc2)CC1)c1cccs1 (stereo not given)	1.483%	2.699%	3.831%	-9%	-2.424%
CC(Cn1ccnc1)NC(=O)N1CCN(Cc2ccncc2)CC1 (stereo not given)	-3.704%	-0.6497%	5.196%	-24.96%	9.467%
CCCS(=O)(=O)N1CCC2(CCCC(=O)N2C)CC1	10.59%	4.29%	2.799%	-1.419%	4.854%
Cc1cc2nc(CO[C@H]3CN(C)C[C@H]3F)[nH]c2cc1C	4.325%	-3.178%	-1.987%	-5.56%	8.696%
CC(C(=O)NC(N)=O)N(C)CCCc1cc(-c2ccccc2)no1 (stereo not given)	-0.000004%	0.3858%	10.83%	-27.86%	8.455%
COCCNC(=O)Nc1ccc(C(=O)N2CCSCC2)cc1C	-0.1505%	2.651%	-1.463%	-17.92%	0.9804%
COC(=O)c1cc(C(=O)N2CCN(C)CC2)n(-c2ccccc2)n1	-6.34%	-2.693%	3.676%	-18.9%	1.775%
CN(Cc1ccccc1)C1(C(=O)NC(CO)CO)Cc2ccccc2C1	-3.466%	0.9196%	5.882%	-7.585%	6.557%
CC(C)N(C)Cc1nnc2n1CCCN(c1ncccn1)C2	-	4.204%	-3.415%	5.334%	8.889%
CC(=O)Nc1ccc(C(=O)Nc2cnc3n2CCCC3)cc1C	15.5%	2.971%	6.688%	-10.15%	0.9901%
O=C(c1cccnc1)N1CCCC(Cc2nccs2)C1 (stereo not given)	-	3.429%	0.1205%	13.6%	-1.13%
O=C(c1ccc(F)cc1)N1CC[C@H]2[C@H]1CCN2CC1CCOCC1	3.563%	3.126%	2.843%	2.563%	7.143%
CC(NC(=O)N1CCN(c2ccccc2)CC1)c1nncn1C (stereo not given)	-3.294%	5.108%	0.9126%	-0.8591%	1.132%
CCc1onc(C)c1C(=O)N1CCN(c2ncc3c(n2)CCOC3)CC1	-3.721%	-0.2444%	14.04%	-7.55%	3.39%

5 of the entries, repeated:

- CC(C)(C)c1ncc(CNc2ccccc2Cn2cncn2)s1 : MtTrpRS: 2.058%; PfKRS1: 4.239%; CoaBC: 2.419%; ClpP1P2: -8.55%; TcHisRS: 4.202%
- CNC(=O)c1c(C)cccc1NCC(=O)Nc1cc(C)nn1C : MtTrpRS: -2.233%; PfKRS1: 4.057%; CoaBC: 5.104%; ClpP1P2: 5.144%; TcHisRS: 6.863%
- COc1cc(C(C)NCc2cscn2)ccc1SC(F)F (stereo not given) : MtTrpRS: -0.2349%; PfKRS1: -2.651%; CoaBC: -0.2445%; ClpP1P2: 12.7%; TcHisRS: 3.093%
- Cc1cccn2cc(C(=O)N3CCCN(CC4CC4)C(C(C)C)C3)nc12 (stereo not given) : MtTrpRS: -0.7508%; PfKRS1: 2.538%; CoaBC: 5.302%; ClpP1P2: -11.64%; TcHisRS: 4.386%
- CC(C)(C)CCN1CCC(c2nnc(Cn3cccn3)n2C2CC2)CC1 : MtTrpRS: 0.6365%; PfKRS1: 5.889%; CoaBC: 3.827%; ClpP1P2: -28.71%; TcHisRS: -1.339%